Results taken from publication PMC3865254.
No constants are given. Whether binding was seen depends on the method and setting. Binding seen in cells or lysates may run through a third protein. Some results given as binding are weak or reduced against the parent protein; the word gives no strength.

By UniProt entry, the sequences of proteins in these tests, tags left out. Where a name states a change or a piece, a line headed by the entry shows the natural chain unless it says otherwise. Chains listed by the source or under a name are the forms on record and can include a tag or linker.
Sarco(endo)plasmic reticulum Ca2+-ATPase 1a (human (endogenous in vastus lateralis)) (O14983, form named): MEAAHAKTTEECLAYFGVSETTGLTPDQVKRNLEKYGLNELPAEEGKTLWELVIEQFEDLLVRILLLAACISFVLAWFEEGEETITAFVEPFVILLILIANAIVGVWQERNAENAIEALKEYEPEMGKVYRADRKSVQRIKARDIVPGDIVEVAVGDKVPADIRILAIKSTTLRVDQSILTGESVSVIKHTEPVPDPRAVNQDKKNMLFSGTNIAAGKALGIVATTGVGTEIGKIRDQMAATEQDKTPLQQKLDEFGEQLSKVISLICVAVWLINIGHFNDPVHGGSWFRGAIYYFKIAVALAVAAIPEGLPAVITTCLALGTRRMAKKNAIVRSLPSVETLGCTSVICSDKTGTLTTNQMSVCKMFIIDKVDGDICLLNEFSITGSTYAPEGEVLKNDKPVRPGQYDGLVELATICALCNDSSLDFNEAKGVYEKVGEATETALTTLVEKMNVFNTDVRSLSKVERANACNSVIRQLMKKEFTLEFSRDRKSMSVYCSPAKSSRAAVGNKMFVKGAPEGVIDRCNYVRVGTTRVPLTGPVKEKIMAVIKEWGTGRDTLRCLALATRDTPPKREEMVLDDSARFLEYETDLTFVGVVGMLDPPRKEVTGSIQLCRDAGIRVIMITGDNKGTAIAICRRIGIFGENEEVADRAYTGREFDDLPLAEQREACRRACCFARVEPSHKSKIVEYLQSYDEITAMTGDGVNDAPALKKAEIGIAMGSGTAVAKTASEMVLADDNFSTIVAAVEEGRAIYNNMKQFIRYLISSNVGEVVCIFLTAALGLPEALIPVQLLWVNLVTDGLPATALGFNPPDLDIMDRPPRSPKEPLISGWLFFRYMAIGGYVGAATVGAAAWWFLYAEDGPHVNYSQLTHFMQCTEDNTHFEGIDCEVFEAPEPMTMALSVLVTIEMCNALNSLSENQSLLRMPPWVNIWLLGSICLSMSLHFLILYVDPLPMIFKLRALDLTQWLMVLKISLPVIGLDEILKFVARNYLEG
Sarco(endo)plasmic reticulum Ca2+-ATPase 2a (human (endogenous in vastus lateralis)) (P16615, form named): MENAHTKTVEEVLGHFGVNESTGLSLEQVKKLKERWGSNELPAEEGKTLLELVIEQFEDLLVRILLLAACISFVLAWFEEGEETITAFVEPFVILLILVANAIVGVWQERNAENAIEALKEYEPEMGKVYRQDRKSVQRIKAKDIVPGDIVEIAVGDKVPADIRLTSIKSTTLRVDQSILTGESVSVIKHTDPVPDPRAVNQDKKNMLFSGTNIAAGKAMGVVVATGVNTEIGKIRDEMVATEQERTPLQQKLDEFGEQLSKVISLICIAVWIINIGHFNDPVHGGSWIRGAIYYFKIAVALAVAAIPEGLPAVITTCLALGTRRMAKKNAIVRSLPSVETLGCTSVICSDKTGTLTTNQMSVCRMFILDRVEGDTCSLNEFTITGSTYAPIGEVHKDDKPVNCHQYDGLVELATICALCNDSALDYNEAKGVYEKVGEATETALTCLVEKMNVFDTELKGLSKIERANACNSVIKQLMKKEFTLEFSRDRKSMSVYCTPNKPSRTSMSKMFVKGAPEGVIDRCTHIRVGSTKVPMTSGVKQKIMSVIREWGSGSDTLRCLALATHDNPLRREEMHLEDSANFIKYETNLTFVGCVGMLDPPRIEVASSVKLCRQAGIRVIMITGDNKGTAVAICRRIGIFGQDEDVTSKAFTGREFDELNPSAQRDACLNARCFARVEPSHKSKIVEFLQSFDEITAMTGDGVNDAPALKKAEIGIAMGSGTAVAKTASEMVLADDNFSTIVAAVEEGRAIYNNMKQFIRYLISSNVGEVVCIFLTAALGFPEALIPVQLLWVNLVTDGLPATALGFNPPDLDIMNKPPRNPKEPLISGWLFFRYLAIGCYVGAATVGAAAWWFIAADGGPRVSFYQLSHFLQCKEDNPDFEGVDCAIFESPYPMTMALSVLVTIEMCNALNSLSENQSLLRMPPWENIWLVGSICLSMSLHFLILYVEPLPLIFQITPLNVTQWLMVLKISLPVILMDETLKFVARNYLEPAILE
UniProt P26678: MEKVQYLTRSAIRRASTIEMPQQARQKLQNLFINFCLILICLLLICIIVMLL

Columns and labels:
[1] = target: Sarco(endo)plasmic reticulum Ca2+-ATPase 1a (human (endogenous in vastus lateralis)) (UniProt O14983); assay: co-IP; Protein G agarose beads coupled with 5 μg of antibody against SERCA1a, SERCA2a, PLN or SLN; incubated overnight at 4°C with 400 μg of protein from human vastus lateralis homogenate; low-pH elution; Western blot for SLN, PLN, SERCA1a or SERCA2a; homogenates from 3 individuals
[2] = target: Sarco(endo)plasmic reticulum Ca2+-ATPase 2a (human (endogenous in vastus lateralis)) (UniProt P16615); assay: as above

binding [1]: binds | binding [2]: binds
Substance: Phospholamban (from UniProt P26678 1-52)
